One data set has as its target FLAG-SOX4 (Mus musculus) (UniProt Q06831). As to the kind of experiment: EMSA. As to conditions: marked specificity for the WT site; EMSA: 10 mM Tris-HCl pH 7.5, 1 mM MgCl2, 1 mM DTT, 50 mM KCl, 0.3 mg/ml BSA, 5% glycerol, RT 30 min; 5% native PAGE in 0.5x TBE; recombinant protein; protein details: N-terminal FLAG (MDYKDDDDK); label: Cy5 5'-end. (In general: In EMSA bound probe runs differently from free probe, usually more slowly.)

The chains behind the UniProt entries cited, without tags or fusion partners. Where a name states a change or a piece, a line headed by the entry shows the natural chain unless it says otherwise.
UniProt Q06831: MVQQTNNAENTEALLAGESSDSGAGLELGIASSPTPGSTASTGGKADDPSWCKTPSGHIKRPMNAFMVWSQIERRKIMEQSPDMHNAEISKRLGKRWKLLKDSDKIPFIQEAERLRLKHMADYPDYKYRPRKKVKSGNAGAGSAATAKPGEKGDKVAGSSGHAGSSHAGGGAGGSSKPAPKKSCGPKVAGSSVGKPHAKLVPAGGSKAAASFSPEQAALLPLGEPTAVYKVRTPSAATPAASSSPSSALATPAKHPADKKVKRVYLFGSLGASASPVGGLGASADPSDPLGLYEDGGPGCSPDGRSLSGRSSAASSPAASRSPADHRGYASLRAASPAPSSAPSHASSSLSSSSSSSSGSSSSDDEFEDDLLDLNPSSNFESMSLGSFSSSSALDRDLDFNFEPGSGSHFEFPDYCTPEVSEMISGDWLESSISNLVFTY
UniProt P49698: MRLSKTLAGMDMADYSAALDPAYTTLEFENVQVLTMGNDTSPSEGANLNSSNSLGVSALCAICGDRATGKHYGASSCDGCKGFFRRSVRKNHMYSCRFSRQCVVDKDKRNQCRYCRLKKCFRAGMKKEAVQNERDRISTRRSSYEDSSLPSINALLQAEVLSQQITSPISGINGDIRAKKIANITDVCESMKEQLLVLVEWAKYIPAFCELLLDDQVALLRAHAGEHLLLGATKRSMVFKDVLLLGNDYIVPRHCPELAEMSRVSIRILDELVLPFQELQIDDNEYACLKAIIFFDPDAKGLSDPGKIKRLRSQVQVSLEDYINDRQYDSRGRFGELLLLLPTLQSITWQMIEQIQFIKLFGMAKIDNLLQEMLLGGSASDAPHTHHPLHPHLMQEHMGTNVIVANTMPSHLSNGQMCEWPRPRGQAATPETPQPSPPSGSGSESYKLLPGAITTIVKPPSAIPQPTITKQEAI

In data set [1] the target is MYC-FLAG-HNF4A (Mus musculus) (UniProt P49698). As to the kind of experiment: EMSA. As to conditions: HNF4A bound specifically to the WT site; EMSA: 10 mM Tris-HCl pH 7.5, 1 mM MgCl2, 1 mM DTT, 50 mM KCl, 0.3 mg/ml BSA, 5% glycerol, RT 30 min; 5% native PAGE in 0.5x TBE; commercial protein; protein details: MYC-FLAG; label: Cy5 5'-end.

For at least one entry, the source does not settle the construct or the ends of the probe. The comparison behind a weaker result is the experiment's own reference, which may not be listed here. At least one verdict was read from the data and is not stated in words by the source.

As to “ATCTCTGAATCATAGAGAGGAGAAG (double strand) [Cyp2e1 distal enhancer mutant (scrambled HNF4A motif)]”, the binding result (in the data set with FLAG-SOX4 (Mus musculus); in data set [1]) was “binds more weakly” each time.
